At least one peptide structure holds a part that was inferred or is arguable (an end, a ring closure or a residue). Where a SMILES comes first, the peptide text is derived from it.
Key:
[1] = tested on: hypertension induced by angiotensin II; test: Decrease in blood pressure after intravenous administration, under i.v. infusion of angiotensin II; assay type: in vivo, tomcats; conditions: single dose, angiotensin II infusion 0.5 μg/kg/min, average of 6 experiments
Description: The antagonistic activity of the compounds having the formula I was tested on tomcats. The blood pressure was measured on the cervical artery. The tests were performed by introducing a Hypertension (CIBA) infusion into a lateral femoral vane at a speed of 0.5 μg/kg/min. When the increase in blood pressure was stabilized, the aqueous, physiological or carrier-containing solutions of the test compounds and Saralasin were administered in a single dose, intravenously or subcutaneously, and the decrease in blood pressure was measured. In the Table 1 the decrease in the arterial blood pressure under the influence of an intravenous administration of the test compounds is illustrated. For comparision Saralasin is used. The data set forth in the Table 1 were obtained by calculating the average of the results of 6 experiments. The margins of error indicate the scatter of the main value.

[2] = tested on: hypertension induced by angiotensin II; test: Decrease in blood pressure after subcutaneous administration, under i.v. infusion of angiotensin II; assay type: in vivo, tomcats; conditions: 200 μg/kg s.c., average of five tests
[3] = physiological salt solution, CMC

Structure (SMILES) | Decrease in blood pressure (mmHg) after administration of 10 μg/kg i.v. doses [1] | Decrease in blood pressure (mmHg) after administration of 20 /μg/kg i.v. doses [1] | Decrease in blood pressure (mmHg) after 15 minutes ([2]; solvent gelatine) | Decrease in blood pressure (mmHg) after 30 minutes ([2]; solvent gelatine) | Decrease in blood pressure (mmHg) after 60 minutes ([2]; solvent gelatine) | Decrease in blood pressure (mmHg) after 120 minutes ([2]; solvent gelatine) | Decrease in blood pressure (mmHg) after 15 minutes [2, 3] | Decrease in blood pressure (mmHg) after 30 minutes [2, 3] | Decrease in blood pressure (mmHg) after 60 minutes [2, 3] | Decrease in blood pressure (mmHg) after 120 minutes [2, 3]
CC[C@H](C)[C@H](NC(=O)[C@@H]1CCCN1C(=O)[C@H](Cc1c[nH]cn1)NC(=O)[C@@H](NC(=O)[C@H](Cc1ccc(O)cc1)NC(=O)[C@@H](NC(=O)[C@H](CCCNC(=N)N)NC(=O)[C@H](C)O)C(C)C)[C@@H](C)CC)C(=O)O [(1-α-Hydroxypropionyl^1,Ile^8)-AngII, (L-α-hydroxypropionyl^1,Ile^8)-angiotensin II] | -31 ± 3.3 mmHg | -38 ± 4.1 mmHg | -28 ± 10 mmHg | -28 ± 7.0 mmHg | -25 ± 6.0 mmHg | -5 ± 7.3 mmHg | – | – | – | –
CC[C@H](C)[C@H](NC(=O)[C@@H]1CCCN1C(=O)[C@H](Cc1c[nH]cn1)NC(=O)[C@@H](NC(=O)[C@H](Cc1ccc(O)cc1)NC(=O)[C@@H](NC(=O)[C@H](CCCNC(=N)N)NC(=O)CO)C(C)C)[C@@H](C)CC)C(=O)O [(Hydroxyacetyl^1,Ile^8)-AngII, (Hydroxyacetyl^1,Ile^8)-angiotensin II] | -24 ± 1.7 mmHg | -30 ± 2.3 mmHg | – | – | – | – | – | – | – | –
CC[C@H](C)[C@H](NC(=O)[C@H](Cc1ccc(O)cc1)NC(=O)[C@@H](NC(=O)[C@H](CCCNC(=N)N)NC(=O)CO)C(C)C)C(=O)N[C@@H](Cc1c[nH]cn1)C(=O)N1CCC[C@H]1C(=O)N[C@@H](CC(C)C)C(=O)O [(Hydroxyacetyl^1,Leu^8)-AngII, (Hydroxyacetyl^1,Leu^8)-angiotensin II] (HELM PEPTIDE1{[O=C(CO)[*:2]].R.V.Y.I.H.P.L}$$$$V2.0) | -31 ± 4.7 mmHg | -42 ± 2.8 mmHg | – | – | – | – | – | – | – | –
CC[C@H](C)[C@H](NC(=O)[C@H](Cc1ccc(O)cc1)NC(=O)[C@@H](NC(=O)[C@H](CCCNC(=N)N)NC(=O)[C@H](C)O)C(C)C)C(=O)N[C@@H](Cc1c[nH]cn1)C(=O)N1CCC[C@H]1C(=O)N[C@@H](CC(C)C)C(=O)O [(L-α-Hydroxypropionyl^1,Leu^8)-AngII, (L-α-hydroxypropionyl^1,Leu^8)-angiotensin II] (HELM PEPTIDE1{[C[C@H](O)C(=O)[*:2]].R.V.Y.I.H.P.L}$$$$V2.0) | -32 ± 3.7 mmHg | -40 ± 2.7 mmHg | – | – | – | – | -28 ± 3.1 mmHg | -38 ± 2.4 mmHg | -25 ± 1.5 mmHg | -5 ± 1.8 mmHg

Source: patent US4209442A, “Angiotensin II analogs and process for the preparation thereof” (Richter Gedeon Vegyeszeti Gyar Rt., priority 1977, dated 1980)
